From patent US20210198368A1
These are yes or no findings as the source states them, for the method shown. Some binding calls cover weakened binding; strength is not graded here. For part of these data: Tags and fused reporters may be left off the sequences shown.

B1: CLL-1-9 (scFv)
scFv: QVQLVQSGAEVKEPGASVKVSCKAPANTFSDHVMHWVRQAPGQRFEWMGYIHAANGGTHYSQKFQDRVTITRDTSANTVYMDLSSLRSEDTAVYYCARGGYNSDAFDIWGQGTMVTVSSGGGGSGGGGSGGGGSGGGGSDIVMTQSPSSVSASVGDRVTITCRASQDISSWLAWYQQKPGKAPKLLIYAASSLQSGVPSRFNGSGSGTDFTLTISSLQPEDFATYYCQQSYSTPLTFGGGTKVEIK
B2: CLL-1-10 (scFv)
scFv: QVQLVQSGGGLVQPGGSLRLSCAASGFTFSSYSMNWVRQAPGKGLEWVSYISSSSSTIYYADSVKGRFTISRDNAKNSLYLQMNSLRAEDTAVYYCARDLSVRAIDAFDIWGQGTMVTVSSGGGGSGGGGSGGGGSGGGGSDIVLTQSPSSLSASVGDRVTITCQASQDISNYLNWYQQKPGKAPKLLIYDASNLETGVPSRFSGSGSGTDFTFTISSLQPEDFATYYCQQAYSTPFTFGPGTKVEIK
B3: CLL-1-13 (scFv)
scFv: QVQLVQSGAEVKKSGASVKVSCKASGYPFTGYYIQWVRQAPGQGLEWMGWIDPNSGNTGYAQKFQGRVTMTRNTSISTAYMELSSLRSEDTAVYYCASDSYGYYYGMDVWGQGTLVTVSSGGGGSGGGGSGGGGSGGGGSDIQMTQSPSSLSASVGDRVTFTCRASQGISSALAWYQQKPGKPPKLLIYDASSLESGVPSRFSGSGSGTDFTLTISSLQPEDFATYYCQQFNNYPLTFGGGTKVEIK
B4: CLL-1-3 (scFv)
scFv: QVQLQESGPGLVKPSETLSLTCTVSGGSISSSSYYWGWIRQPPGKGLEWIGSIYYSGSTYYNPSLKSRVSISVDTSKNQFSLKLKYVTAADTAVYYCATPGTYYDFLSGYYPFYWGQGTLVTVSSGGGGSGGGGSGGGGSDIVMTQSPSSLSASVGDRVTITCRASQGISSYLAWYQQKPGKAPKLLIYAASTLQSGVPSRFSGSGSGTDFTLTISSLQPEDFATYYCQQLNSYPYTFGQGTKLEIK
B5: CLL-1-4 (scFv)
scFv: QVQLVESGGGLVQPGGSLRLSCAASGFTFSSYWMSWVRQAPGKGLEWVANINEDGSAKFYVDSVKGRFTISRDNAKNSLYLQMNSLRAEDTAVYFCARDLRSGRYWGQGTLVTVSSGGGGSGGGGSGGGGSEIVLTQSPGTLSLSPGGRATLSCRASQSISGSFLAWYQQKPGQAPRLLIYGASSRATGIPDRFSGSGSGTDFTLTISRLEPEDFAVYYCQQYGSSPPTFGLGTKLEIK
B6: CLL-1-7 (scFv)
scFv: EVQLVESGGGLVKPGGSLRLSCAASGFTFSSYSMNWVRQAPGKGLEWVSSISSSSSYIYYADSVKGRFTISRDNAKNSLYLQMNSLRAEDTAVYYCARDPSSSGSYYMEDSYYYGMDVWGQGTTVTVSSGGGGSGGGGSGGGGSNFMLTQPHSVSESPGKTVTISCTGSSGSIASNYVQWYQQRPGSAPTTVIYEDNQRPSGVPDRFSGSIDSSSNSASLTISGLKTEDEADYYCQSYDSSNQVVFGGGTKLTVL

Assays:
human CLL-1 Fc (human) = target: T1, human CLL-1 Fc (human) (UniProt Q5QGZ9); assay: SPR (Biacore T200), human CLL-1 Fc captured on an anti-Fc CM5 chip, scFv as analyte
T1 sequence (looked up): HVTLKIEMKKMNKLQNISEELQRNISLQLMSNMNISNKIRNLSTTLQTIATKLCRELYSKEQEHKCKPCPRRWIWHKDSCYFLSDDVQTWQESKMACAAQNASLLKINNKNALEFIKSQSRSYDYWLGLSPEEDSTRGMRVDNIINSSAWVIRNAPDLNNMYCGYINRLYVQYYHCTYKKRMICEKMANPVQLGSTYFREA

human CLL-1 (human) = target: T2, human CLL-1 (human) (UniProt Q5QGZ9); assay: ELISA and/or FACS of phage clones after panning on immobilized CLL-1
T2 sequence (looked up): T1 sequence (looked up)

binding (human CLL-1 Fc (human)) | binding (human CLL-1 (human)) | Binder
binds | – | B1
binds | – | B2
binds | – | B3
– | binds | B4
– | binds | B5
– | binds | B6
